For the test, the target named is HA-tagged ZNF728 (human) (UniProt P0DKX0). Kind of test: co-IP; HA immunoprecipitation from 10 million K562 cells overexpressing HA-tagged KZFP (pTRE construct, doxycycline-induced), western blot detection of KAP1; performed as described in ref. 30. For orientation: A western blot detects proteins with antibodies after separation by electrophoresis.

Protein sequences, listed by entry. Tags and fused reporters are not part of them.
UniProt P0DKX0: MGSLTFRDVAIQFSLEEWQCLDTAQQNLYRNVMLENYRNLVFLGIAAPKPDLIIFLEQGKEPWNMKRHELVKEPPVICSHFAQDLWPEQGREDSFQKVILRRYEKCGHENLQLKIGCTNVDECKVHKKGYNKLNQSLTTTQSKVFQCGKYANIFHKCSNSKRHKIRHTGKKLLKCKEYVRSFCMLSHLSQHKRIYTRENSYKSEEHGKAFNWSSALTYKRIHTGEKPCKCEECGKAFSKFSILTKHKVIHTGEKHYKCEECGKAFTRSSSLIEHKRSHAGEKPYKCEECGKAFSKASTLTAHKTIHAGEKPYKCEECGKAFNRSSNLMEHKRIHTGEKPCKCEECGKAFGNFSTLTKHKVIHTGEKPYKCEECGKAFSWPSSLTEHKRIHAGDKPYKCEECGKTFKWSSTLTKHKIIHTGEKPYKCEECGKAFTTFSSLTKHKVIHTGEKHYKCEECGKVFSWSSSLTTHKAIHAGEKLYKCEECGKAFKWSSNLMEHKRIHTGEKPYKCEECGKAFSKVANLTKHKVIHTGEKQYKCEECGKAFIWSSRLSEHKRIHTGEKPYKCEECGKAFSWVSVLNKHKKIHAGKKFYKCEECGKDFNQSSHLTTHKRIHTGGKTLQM
UniProt Q13263: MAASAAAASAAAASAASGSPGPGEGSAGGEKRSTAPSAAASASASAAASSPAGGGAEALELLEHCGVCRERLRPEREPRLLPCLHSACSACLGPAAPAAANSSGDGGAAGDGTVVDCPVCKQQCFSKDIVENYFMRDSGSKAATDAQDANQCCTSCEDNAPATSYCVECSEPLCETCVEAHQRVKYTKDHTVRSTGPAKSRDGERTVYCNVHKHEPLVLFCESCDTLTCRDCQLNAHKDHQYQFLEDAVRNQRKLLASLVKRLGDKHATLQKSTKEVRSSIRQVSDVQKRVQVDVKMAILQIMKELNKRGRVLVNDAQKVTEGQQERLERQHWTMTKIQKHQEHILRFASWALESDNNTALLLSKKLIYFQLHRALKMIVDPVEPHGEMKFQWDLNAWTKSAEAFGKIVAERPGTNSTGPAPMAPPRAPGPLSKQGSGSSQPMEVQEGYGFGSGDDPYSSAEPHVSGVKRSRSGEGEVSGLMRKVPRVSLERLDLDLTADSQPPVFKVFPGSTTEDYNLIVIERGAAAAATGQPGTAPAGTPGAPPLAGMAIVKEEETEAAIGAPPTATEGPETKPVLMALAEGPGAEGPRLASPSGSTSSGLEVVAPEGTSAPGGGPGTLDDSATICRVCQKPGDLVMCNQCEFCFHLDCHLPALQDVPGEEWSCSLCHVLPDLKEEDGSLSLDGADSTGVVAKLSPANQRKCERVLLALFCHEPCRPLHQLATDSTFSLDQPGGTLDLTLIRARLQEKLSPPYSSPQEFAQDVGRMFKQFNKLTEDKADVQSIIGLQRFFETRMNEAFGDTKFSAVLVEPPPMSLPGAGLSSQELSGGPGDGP

These are yes or no findings as the source states them, for the method shown. In cells and extracts the contact can be indirect. Some binding calls cover weakened binding; strength is not graded here.

In the case of KAP1/TRIM28 (from UniProt Q13263 1-835), the binding result was “binds”.
